# Laboratory results reported in the supplement of paper PMC12067093, “Discovery and optimisation of a covalent ligand for TRIM25 and its application to targeted protein ubiquitination” (Chemical Science, 2025).
# By UniProt entry, the sequences of proteins in these tests, tags left out. Where a name states a change or a piece, a line headed by the entry shows the natural chain unless it says otherwise.
# UniProt Q92643: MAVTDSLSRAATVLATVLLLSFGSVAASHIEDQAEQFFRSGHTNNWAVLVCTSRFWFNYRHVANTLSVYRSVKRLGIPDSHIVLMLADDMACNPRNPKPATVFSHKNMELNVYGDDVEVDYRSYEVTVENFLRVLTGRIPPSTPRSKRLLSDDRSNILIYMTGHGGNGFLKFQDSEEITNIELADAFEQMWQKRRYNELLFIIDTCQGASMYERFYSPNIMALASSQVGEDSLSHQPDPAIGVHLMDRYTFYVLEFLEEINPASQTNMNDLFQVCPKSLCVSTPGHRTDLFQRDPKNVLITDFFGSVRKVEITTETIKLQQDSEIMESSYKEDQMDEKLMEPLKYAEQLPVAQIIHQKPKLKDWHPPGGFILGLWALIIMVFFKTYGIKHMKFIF
# Some of the results follow.
# Experiments:
# [1] = biological target: PIGK_Q92643_92_LGIPDSHIVLMLADDMACNPR (UniProt Q92643); test: probe-labelled cysteine peptide fold change vs DMSO (competition) (log2 fold change); higher = less target engagement (more negative = stronger competition); conditions: THP-1, incubation time: 4 h
# [2] = biological target: PIGK_Q92643_92_RLGIPDSHIVLMLADDMACNPR (UniProt Q92643); test: as above; conditions: THP-1, incubation time: 4 h
# 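Note: competitive profiling in live THP-1 cells: cysteine peptides tagged with an iodoacetamide desthiobiotin (IA-DTB) probe, intensity after compound treatment relative to DMSO-treated cells.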
smiles,measurement,setting,value
Cc1cc(C(=O)N2CCCN(C(=O)CCl)CC2)ccc1-c1ccccc1 [compound 10],probe-labelled cysteine peptide fold change,[1]; 10 µM,0.0527
same,probe-labelled cysteine peptide fold change,[1]; 50 µM,-0.0492
same,probe-labelled cysteine peptide fold change,[2]; 10 µM,-0.00909
same,probe-labelled cysteine peptide fold change,[2]; 50 µM,0.103
